Patent publication US20100093634A1 (UNIVERSITY OF MARYLAND BALTIMORE, published 2010)
These are yes or no findings as the source states them, for the method shown. Where a sequence is shown, tags or fusion partners need not be part of it.

Columns and labels:
Test in all cases: condition: 2-5 µg of His-tagged adaptor and an equal quantity of GST fusion in 300 µl; pull-down on Ni-NTA beads, anti-GST Western blot
[1] = target: His-tagged Dab-2 (PTB-domain clathrin adaptor)
[2] = target: His-tagged GULP (PTB-domain clathrin adaptor)
[3] = target: His-tagged Numb (PTB-domain clathrin adaptor)

binding [1]: no binding
binding [2]: no binding
binding [3]: no binding
Binder: EVETPHCAMCLYNEKDARARMKRGYDNPNFVLSEVDETDDTQM (peptide, not shown: a dimerising Fc or GST) [GST fusion of the wild-type (WT) ROMK1 C-terminus (amino acids 349-391)]
